PubChem BioAssay AID493246, Drosophila RNAi Screening Center – 2011
In all, the deposit lists about 21,000 reagents; this is an unselected part of those with a known target gene and a result. In the full data, 429 (2%) are marked active. 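Values are raw and not normalised between plates; calls rest on per-plate z-scores that were not deposited.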 A number with no mark means an inactive call. The record does not give: the amount of reagent, the time to read-out.

- Assay: 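Identify essential fly genes by loss of cell viability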 (primary screen)
- Cells: Drosophila Kc and S2R+ cells
- Reagents: long dsRNA against Drosophila genes
- Detection: 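Cell number per well after knock-down, printed as raw plate values; calls were based on per-plate z-scores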
- Reading the numbers: Kc cell number and S2R+ cell number: higher = more cells remaining
- Call rule: 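Active when the per-plate z-score of cell number is 3 or more in the direction of fewer cells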

With knock-down of Nxt1 [DRSC04630], the record shows Kc cell number, rep 1 = 1.62e6; Kc cell number, rep 2 = 1.77e6; S2R+ cell number, rep 1 = 1.26e6; S2R+ cell number, rep 2 = 1.39e6. With knock-down of CG34224 [DRSC05269] the results were Kc cell number, rep 1 = 1.51e6; Kc cell number, rep 2 = 1.48e6; S2R+ cell number, rep 1 = 1.05e6; S2R+ cell number, rep 2 = 1.21e6. CG5853 [DRSC01103] gave Kc cell number, rep 1 = 1.38e6; Kc cell number, rep 2 = 1.48e6; S2R+ cell number, rep 1 = 1.01e6; S2R+ cell number, rep 2 = 1.13e6. With knock-down of CG5853 [DRSC02906] the results were Kc cell number, rep 1 = 1.39e6; Kc cell number, rep 2 = 1.41e6; S2R+ cell number, rep 1 = 1.15e6; S2R+ cell number, rep 2 = 1.23e6. Usp47 [DRSC11313] gave Kc cell number, rep 1 = 9.88e5; Kc cell number, rep 2 = 1.13e6; S2R+ cell number, rep 1 = 1.27e6; S2R+ cell number, rep 2 = 8.33e5. Silencing of gfzf [DRSC12506] gave: Kc cell number, rep 1 = 1.43e6; Kc cell number, rep 2 = 1.55e6; S2R+ cell number, rep 1 = 1.36e6; S2R+ cell number, rep 2 = 1.49e6.

Against ph-d [DRSC18819], the entry reads Kc cell number, rep 1 = 1.38e6; Kc cell number, rep 2 = 1.52e6; S2R+ cell number, rep 1 = 7.32e5; S2R+ cell number, rep 2 = 8.20e5. ru [DRSC08258] showed Kc cell number, rep 1 = 1.42e6; Kc cell number, rep 2 = 1.28e6; S2R+ cell number, rep 1 = 9.92e5; S2R+ cell number, rep 2 = 1.28e6. For Met [DRSC20284], the values are Kc cell number, rep 1 = 1.50e6; Kc cell number, rep 2 = 1.47e6; S2R+ cell number, rep 1 = 1.02e6; S2R+ cell number, rep 2 = 1.15e6. Depletion of Arpc5 [DRSC00730] gave: Kc cell number, rep 1 = 1.41e6; Kc cell number, rep 2 = 1.42e6; S2R+ cell number, rep 1 = 1.00e6; S2R+ cell number, rep 2 = 1.21e6. After knock-down of CG14829 [DRSC10199], the screen gave Kc cell number, rep 1 = 1.71e6; Kc cell number, rep 2 = 1.61e6; S2R+ cell number, rep 1 = 1.08e6; S2R+ cell number, rep 2 = 1.23e6. For CG32027 (retired record) [DRSC09571], the values are Kc cell number, rep 1 = 1.61e6; Kc cell number, rep 2 = 1.73e6; S2R+ cell number, rep 1 = 1.24e6; S2R+ cell number, rep 2 = 1.42e6.

With knock-down of Su(dx) [DRSC00791] the results were Kc cell number, rep 1 = 1.34e6; Kc cell number, rep 2 = 1.36e6; S2R+ cell number, rep 1 = 8.89e5; S2R+ cell number, rep 2 = 8.77e5. With knock-down of Fadd [DRSC14122], the record shows Kc cell number, rep 1 = 1.32e6; Kc cell number, rep 2 = 1.30e6; S2R+ cell number, rep 1 = 1.00e6; S2R+ cell number, rep 2 = 1.18e6.
